# From publication doi:10.1101/251405
# Protein sequences, listed by entry. Tags and fused reporters are not part of them.
# UniProt Q61768: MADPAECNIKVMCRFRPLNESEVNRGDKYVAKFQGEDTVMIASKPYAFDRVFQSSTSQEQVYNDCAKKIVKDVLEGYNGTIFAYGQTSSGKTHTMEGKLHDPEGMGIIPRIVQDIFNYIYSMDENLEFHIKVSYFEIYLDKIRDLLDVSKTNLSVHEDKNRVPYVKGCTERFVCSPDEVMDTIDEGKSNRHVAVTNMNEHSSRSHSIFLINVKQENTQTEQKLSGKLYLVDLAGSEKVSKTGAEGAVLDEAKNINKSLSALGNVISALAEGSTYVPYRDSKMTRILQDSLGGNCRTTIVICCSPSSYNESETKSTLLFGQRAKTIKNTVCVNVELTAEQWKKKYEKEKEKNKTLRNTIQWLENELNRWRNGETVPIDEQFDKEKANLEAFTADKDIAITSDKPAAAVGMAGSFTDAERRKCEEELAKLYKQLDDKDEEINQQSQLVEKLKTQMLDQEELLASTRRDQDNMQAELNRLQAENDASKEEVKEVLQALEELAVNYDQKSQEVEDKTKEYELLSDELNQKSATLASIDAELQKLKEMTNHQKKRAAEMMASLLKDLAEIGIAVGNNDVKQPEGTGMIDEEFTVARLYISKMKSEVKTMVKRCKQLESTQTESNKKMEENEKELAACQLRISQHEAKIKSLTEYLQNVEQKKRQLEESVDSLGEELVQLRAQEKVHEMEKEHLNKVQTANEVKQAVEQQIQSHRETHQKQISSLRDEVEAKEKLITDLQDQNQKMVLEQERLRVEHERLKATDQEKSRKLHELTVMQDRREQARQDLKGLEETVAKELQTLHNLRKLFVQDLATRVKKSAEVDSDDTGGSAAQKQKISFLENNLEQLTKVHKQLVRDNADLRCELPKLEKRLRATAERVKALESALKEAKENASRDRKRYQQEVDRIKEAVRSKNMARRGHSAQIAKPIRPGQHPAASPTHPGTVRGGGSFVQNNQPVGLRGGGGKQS
# UniProt Q9H0B6: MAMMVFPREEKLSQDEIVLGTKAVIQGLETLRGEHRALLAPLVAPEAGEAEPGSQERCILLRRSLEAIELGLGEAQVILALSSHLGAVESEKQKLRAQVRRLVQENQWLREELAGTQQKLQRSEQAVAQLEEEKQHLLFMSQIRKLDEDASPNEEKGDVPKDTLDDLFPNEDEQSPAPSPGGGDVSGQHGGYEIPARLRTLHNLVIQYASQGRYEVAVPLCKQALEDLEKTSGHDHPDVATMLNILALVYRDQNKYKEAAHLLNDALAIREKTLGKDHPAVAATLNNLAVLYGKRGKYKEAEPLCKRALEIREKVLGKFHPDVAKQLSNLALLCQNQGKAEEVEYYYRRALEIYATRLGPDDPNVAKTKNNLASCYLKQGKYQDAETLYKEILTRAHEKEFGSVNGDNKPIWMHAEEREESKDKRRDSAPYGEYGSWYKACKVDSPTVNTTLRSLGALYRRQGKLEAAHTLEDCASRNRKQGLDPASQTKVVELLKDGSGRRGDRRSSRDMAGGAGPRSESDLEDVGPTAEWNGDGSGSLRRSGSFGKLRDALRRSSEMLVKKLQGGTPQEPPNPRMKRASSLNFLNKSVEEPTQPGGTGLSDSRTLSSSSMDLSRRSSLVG
# UniProt Q07866: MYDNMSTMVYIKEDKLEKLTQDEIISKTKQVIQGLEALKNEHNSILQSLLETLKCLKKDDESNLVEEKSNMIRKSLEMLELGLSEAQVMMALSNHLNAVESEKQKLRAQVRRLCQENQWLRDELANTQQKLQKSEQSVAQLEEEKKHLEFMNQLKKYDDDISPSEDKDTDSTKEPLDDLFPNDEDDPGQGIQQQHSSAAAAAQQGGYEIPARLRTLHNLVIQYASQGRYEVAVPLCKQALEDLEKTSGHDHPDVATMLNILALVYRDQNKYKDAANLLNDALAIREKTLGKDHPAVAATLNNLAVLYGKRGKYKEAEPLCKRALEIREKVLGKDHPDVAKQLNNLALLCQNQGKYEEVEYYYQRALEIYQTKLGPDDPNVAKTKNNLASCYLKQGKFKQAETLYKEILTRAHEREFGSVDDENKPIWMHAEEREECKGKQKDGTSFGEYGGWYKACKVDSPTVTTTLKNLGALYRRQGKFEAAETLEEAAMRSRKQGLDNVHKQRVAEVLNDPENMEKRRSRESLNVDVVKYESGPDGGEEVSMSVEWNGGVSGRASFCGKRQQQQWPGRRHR
# Results are given in words; binding and its absence hold for the method and conditions named. Binding seen in cells or lysates may run through a third protein. Some binding calls cover weakened binding; strength is not graded here.
# Target: full-length mKif5b-Emerald (mouse KIF5B, kinesin-1 heavy chain, fused to Emerald) (mouse) (UniProt Q61768)
# Assay: pull-down
row,binding,Substance
1,binds,kinesin light chain 2 (KLC2) (from UniProt Q9H0B6 1-622)
2,binds,kinesin light chain 1 (KLC1) (from UniProt Q07866 1-573)
